Measured values as given in the supplement of paper PMC12823440, “Inhibitors supercharge kinase turnover through native proteolytic circuits” (Nature, 2025).
This is one part of the list. Hit calls seldom repeat between salt and free forms of one compound.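 Kinases were expressed as nanoluciferase fusions in K562 cells and luminescence was read every 4 h between 2 and 18 h as percent of control, DMSO set to 100% and a positive control to 0%. A time point counts as decreased when the signal drops significantly (2 sigma). The hit call is the authors' own, does not follow from the count of time points alone, and its rule is not shown.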

What follows are molecules tested against HER2 (UniProt P04626) (assay: number of time points (of 5) at which kinase-Nluc abundance scored as decreased, DMSO-normalised (count); higher = more persistent destabilization). Details: K562; 2-18 h.

| Structure (SMILES) | number of time points |
| --- | --- |
| CCS(=O)(=O)c1ccc(Oc2cc(O[C@@H](C)CO)cc(C(=O)Nc3ccn(C)n3)c2)cn1 (10 µM) | 0 |
| O=C1C(=Cc2ccc(O)c(O)c2)Oc2ccccc21 (2.5 µM) | 0 |
| CN(C)CCCNc1ccn2ncc(-c3ccc4c(c3)OCO4)c2n1 (10 µM) | 0 |
| COc1ccc(C(=O)c2cn(C(C)C)c3ncnc(N)c23)cc1NC(=O)Nc1ccc(Cl)cc1Cl (10 µM) | 0 |
| C[C@@H]1CN(Cc2cn[nH]c2-c2ccc(C#N)cc2)CCN1c1ccc(C(F)(F)F)cn1 (2.5 µM) | 0 |
| O=C1c2c(O)cc(O)cc2O[C@H](c2cc(O)c(O)c(O)c2)[C@H]1O [Dihydromyricetin] (10 µM) | 0 |
| C=CC(=O)N[C@H]1CCOC[C@H]1Nc1ncc2cc(-c3c(Cl)c(OC)cc(OC)c3Cl)ccc2n1 [Fisogatinib] (10 µM) | 0 |
| CC(C)(O)c1cc(Nc2cc(Oc3cn(C4CC4)nc3C3CCOCC3)ccn2)ccn1 (10 µM) | 0 |
| CC[C@H](C)[C@@H]1NC(=O)[C@@H]2CCCN2C(=O)[C@@H]2CCCN2C(=O)[C@@H]2CCCN2C(=O)[C@H](CC(C)C)NC(=O)CNC(=O)CNC(=O)[C@H](Cc2ccccc2)NC1=O [Heterophyllin B] (10 µM) | 0 |
| COc1cc(-c2cnc(N)c(-c3ccc(NC(=O)c4cn(CC5CCOCC5)cc(-c5ccc(C)cn5)c4=O)cc3F)c2)ccc1OC[C@H]1COCCO1 [DS-1205b (free base)] (10 µM) | 0 |
| C=CC(=O)Nc1cccc(Nc2nc(Nc3ccc(Oc4ccnc(C(=O)NC)c4)cc3)ncc2F)c1 (2.5 µM) | 0 |
